Measurements published in PMC6465247.
These are yes or no findings as the source states them, for the method shown. For some assays here: In cells and extracts the contact can be indirect. Some binding calls cover weakened binding; strength is not graded here. Where a sequence is shown, tags or fusion partners need not be part of it.

T1: REC8, yeast two-hybrid fusion (Arabidopsis thaliana) (UniProt Q9S7T7)
T1 sequence: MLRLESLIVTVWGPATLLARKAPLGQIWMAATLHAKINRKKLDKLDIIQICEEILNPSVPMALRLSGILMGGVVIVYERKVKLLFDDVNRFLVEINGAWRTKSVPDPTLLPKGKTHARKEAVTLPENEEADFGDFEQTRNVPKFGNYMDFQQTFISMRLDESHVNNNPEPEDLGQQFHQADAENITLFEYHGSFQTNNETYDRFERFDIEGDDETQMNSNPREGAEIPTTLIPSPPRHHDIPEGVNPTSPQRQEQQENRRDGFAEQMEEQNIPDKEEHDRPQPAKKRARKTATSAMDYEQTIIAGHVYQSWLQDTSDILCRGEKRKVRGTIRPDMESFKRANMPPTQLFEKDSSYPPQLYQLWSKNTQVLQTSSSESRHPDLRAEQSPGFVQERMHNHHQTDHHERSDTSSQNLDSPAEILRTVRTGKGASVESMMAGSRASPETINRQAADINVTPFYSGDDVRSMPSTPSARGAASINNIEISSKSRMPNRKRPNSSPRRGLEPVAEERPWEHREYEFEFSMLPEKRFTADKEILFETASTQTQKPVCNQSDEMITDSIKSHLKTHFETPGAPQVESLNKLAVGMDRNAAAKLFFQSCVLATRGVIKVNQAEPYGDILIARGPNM

T2: PDS5B, BiFC fusion (Arabidopsis thaliana) (UniProt F4I735)
T2 sequence: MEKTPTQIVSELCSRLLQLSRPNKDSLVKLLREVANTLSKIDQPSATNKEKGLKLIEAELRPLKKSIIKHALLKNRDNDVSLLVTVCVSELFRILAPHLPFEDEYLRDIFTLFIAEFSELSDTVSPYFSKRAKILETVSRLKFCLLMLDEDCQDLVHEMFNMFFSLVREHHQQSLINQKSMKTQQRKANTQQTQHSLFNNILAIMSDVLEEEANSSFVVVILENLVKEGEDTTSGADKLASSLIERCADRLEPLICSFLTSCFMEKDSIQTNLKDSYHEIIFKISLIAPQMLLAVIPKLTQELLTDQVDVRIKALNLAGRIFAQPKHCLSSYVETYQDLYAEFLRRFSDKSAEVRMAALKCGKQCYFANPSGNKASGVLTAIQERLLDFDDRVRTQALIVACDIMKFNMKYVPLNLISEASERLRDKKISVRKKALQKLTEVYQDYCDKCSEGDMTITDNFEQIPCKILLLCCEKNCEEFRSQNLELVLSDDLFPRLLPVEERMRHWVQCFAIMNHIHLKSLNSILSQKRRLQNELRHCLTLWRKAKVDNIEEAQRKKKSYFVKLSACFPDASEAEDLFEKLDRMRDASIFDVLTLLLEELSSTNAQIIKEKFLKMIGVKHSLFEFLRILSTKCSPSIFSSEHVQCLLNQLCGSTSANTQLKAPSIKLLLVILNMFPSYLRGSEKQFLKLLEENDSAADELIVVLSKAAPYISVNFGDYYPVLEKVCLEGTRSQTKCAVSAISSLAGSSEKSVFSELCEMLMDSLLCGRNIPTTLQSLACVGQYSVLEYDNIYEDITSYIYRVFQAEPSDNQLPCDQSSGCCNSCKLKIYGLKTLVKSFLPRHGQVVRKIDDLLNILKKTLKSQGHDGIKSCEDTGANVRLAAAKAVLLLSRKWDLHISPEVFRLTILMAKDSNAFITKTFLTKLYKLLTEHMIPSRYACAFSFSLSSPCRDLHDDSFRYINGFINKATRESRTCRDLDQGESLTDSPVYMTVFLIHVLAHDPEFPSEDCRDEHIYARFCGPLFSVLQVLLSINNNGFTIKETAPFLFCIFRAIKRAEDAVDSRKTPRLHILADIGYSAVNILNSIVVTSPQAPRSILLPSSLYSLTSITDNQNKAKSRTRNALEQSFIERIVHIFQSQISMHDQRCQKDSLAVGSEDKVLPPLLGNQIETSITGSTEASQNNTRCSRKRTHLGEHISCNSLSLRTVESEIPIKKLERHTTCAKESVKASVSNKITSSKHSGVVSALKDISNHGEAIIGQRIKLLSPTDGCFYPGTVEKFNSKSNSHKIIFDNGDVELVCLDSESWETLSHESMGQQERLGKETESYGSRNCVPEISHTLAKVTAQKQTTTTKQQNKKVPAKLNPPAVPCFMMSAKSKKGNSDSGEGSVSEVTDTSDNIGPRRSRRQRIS

B1: SWITCH 1/DYAD (SWI1), yeast two-hybrid fusion (protein, UniProt Q9FGN8 1-639)
chain: MSSTMFVKRNPIRETTAGKISSPSSPTLNVAVAHIRAGSYYEIDASILPQRSPENLKSIRVVMVSKITASDVSLRYPSMFSLRSHFDYSRMNRNKPMKKRSGGGLLPVFDESHVMASELAGDLLYRRIAPHELSMNRNSWGFWVSSSSRRNKFPRREVVSQPAYNTRLCRAASPEGKCSSELKSGGMIKWGRRLRVQYQSRHIDTRKNKEGEESSRVKDEVYKEEEMEKEEDDDDGNEIGGTKQEAKEITNGNRKRKLIESSTERLAQKAKVYDQKKETQIVVYKRKSERKFIDRWSVERYKLAERNMLKVMKEKNAVFGNSILRPELRSEARKLIGDTGLLDHLLKHMAGKVAPGGQDRFMRKHNADGAMEYWLESSDLIHIRKEAGVKDPYWTPPPGWKLGDNPSQDPVCAGEIRDIREELASLKRELKKLASKKEEEELVIMTTPNSCVTSQNDNLMTPAKEIYADLLKKKYKIEDQLVIIGETLRKMEEDMGWLKKTVDENYPKKPDSTETPLLLEDSPPIQTLEGEVKVVNKGNQITESPQNREKGRKHDQQERSPLSLISNTGFRICRPVGMFAWPQLPALAAATDTNASSPSHRQAYPSPFPVKPLAAKRPLGLTFPFTIIPEEAPKNLFNV
B2: SWI1, BiFC fusion (protein, UniProt Q9FGN8 1-639)
chain: B1 chain

Experiments:
[1] = molecular target: T1, REC8, yeast two-hybrid fusion (Arabidopsis thaliana); test: two-hybrid; Matchmaker Gold system (Clontech), pGADT7-GW and pGBKT7-GW fusions co-transformed into yeast AH109; growth on SD/-Leu -Trp -His
[2] = molecular target: T2, PDS5B, BiFC fusion (Arabidopsis thaliana); test: split reporter; BiFC and ratiometric BiFC (pBiFC-2in1-NN, YFP against RFP as reference) in tobacco leaves after Agrobacterium infiltration; imaged 2 days after infiltration

Row | Binder | binding [1] | binding [2]
1 | B1 | no binding | 
2 | B2 |  | binds weakly
